# Measurements reported in patent US8532742B2, “System and method for simultaneous 3DPR device tracking and imaging under MR-guidance for therapeutic endovascular interventions” (Wisconsin Alumni Research Foundation, priority 2006, dated 2013).
# For at least one compound, name, drawing or mass did not settle the structure.
# Experiment: Diffusion of a fluorescent probe in swollen gelatin gel by FRAP
# Type: physicochemical
# Settings: for diffusion coefficient of fluorescein in gelatin solution: room temperature
# Description: To assess the stability of DTPA[Gd(III)] in the gelatin coating, the diffusion of a fluorescence probe in gelatin was studied by the technique of fluorescence recovery after photobleaching (FRAP). The instrument and data analysis scheme are described in Kim, S. H. and Yu, H., J. Phys. Chem. 1992, 96, 4034, which is hereby fully incorporated by reference. Fluorescein was used as the fluorescence probe due, in part, to its molecular size being roughly the same as that of DTPA[Gd(III)]. The focus of the study was to examine the possible retardation effects of gelatin concentration and cross-link density on the diffusion, which was determined at room temperature, i.e., below the gel point of gelatin. The diffusion of fluorescein probe slows down with the increase of gelatin concentration. The diffusion coefficient decreases from 1.5×10-10 to 9×10-12 […]-1 when the concentration of gelatin increases from 9% to 40%. […] Accordingly, the probe diffusion is more likely controlled by the concentration of gelatin rather than the cross-link density. On the other hand, the cross-link density may determine the swelling ratio of gelatin, i.e., the concentration of gelatin in aqueous solution. Without intending to be limited by or restricted to any particular scientific theory, it appears that based upon the diffusion coefficient data, it may be possible to estimate how long will it take for DTPA[Gd(III)] or other paramagnetic-metal-ion/chelate complexes to diffuse out of the gelatin coating. For example, if the thickness of the gelatin coating is 60 μm, and the diffusion coefficient is 9×10-12 […]-1, DTPA may diffuse out of the coating in about 67 seconds. In the MRI experiments, the samples were already soaked in water for 12 hours before MRI test. […] Thus, it may be possible that some of the DTPA[Gd(III)] complexes are tightly associated with microcrystals of gelatin upon being chill-set such that a fraction of them, albeit small, cannot diffuse out of the gelatin matrix upon swelling during the presoak. […]
structure (smiles),measurement,setting,value
O=C1OC2(c3ccc(O)cc3Oc3cc(O)ccc32)c2ccccc21 [fluorescein],diffusion coefficient of fluorescein in gelatin solution,gelatin concentration 9%,1.5×10-10 m2s-1
same,diffusion coefficient of fluorescein in gelatin solution,gelatin concentration 40%,9×10-12 m2s-1
same,fluorescence signal after soaking gelatin films in water,"soaked in water for 18 hours, including films not cross-linked",still fluorescence signal
